Data from publication PMC8002134.
These are yes or no findings as the source states them, for the method shown. Binding seen in cells or lysates may run through a third protein. Some binding calls cover weakened binding; strength is not graded here.

Sequences of proteins named here, by UniProt entry; tags and fusion partners are left off.
UniProt P16794: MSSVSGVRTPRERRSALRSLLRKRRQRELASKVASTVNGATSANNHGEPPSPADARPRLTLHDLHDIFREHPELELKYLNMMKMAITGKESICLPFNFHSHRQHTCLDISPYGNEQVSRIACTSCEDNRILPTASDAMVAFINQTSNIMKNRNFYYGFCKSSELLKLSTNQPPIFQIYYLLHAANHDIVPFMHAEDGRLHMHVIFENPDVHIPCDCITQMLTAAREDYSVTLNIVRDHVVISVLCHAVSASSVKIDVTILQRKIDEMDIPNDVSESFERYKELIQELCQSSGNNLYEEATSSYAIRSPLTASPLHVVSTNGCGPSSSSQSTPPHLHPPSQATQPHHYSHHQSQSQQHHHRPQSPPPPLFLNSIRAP
UniProt P16791: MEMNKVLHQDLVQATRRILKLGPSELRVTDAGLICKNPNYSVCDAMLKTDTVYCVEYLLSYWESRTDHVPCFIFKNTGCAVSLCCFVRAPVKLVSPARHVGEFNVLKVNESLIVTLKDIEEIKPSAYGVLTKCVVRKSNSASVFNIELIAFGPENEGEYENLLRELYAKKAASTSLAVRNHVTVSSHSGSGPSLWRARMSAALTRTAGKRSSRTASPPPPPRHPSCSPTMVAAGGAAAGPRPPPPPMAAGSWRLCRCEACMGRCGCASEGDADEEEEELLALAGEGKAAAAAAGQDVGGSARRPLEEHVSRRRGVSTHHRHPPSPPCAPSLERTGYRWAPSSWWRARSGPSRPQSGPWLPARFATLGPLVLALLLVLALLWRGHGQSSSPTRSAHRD

Key:
[1] = molecular target: HCMV pUL53-Flag (human cytomegalovirus (HCMV)) (UniProt P16794); assay: co-IP
[2] = molecular target: HCMV pUL50-HA (human cytomegalovirus (HCMV)) (UniProt P16791); assay: co-IP

Substance | binding [1] | binding [2]
HCMV pUL50-AU1 (from UniProt P16791 1-397) | binds | no binding
HCMV pUL50-HA (from UniProt P16791 1-397) | binds | –
HCMV pUL50-RFP (from UniProt P16791 1-397) | binds | no binding
